A: 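Enzyme assay of tryptophanyl-tRNA synthetase; the read-out is not stated. Target: Tryptophan-tRNA ligase, Mycobacterium tuberculosis (UniProt P9WFT3). Tested at 10 µM. Direction is not recorded; retested compounds ran higher, which suggests that high means inhibition. About 65,000 compounds were tested under these conditions; 0.098% (about 64) showed 50% or more at least once.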
B: 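Enzyme assay of CoaBC with a phosphate dye (Biomol Green) read at 650 nm. Target: Coenzyme A biosynthesis protein CoaBC, Mycobacterium tuberculosis (UniProt P9WNZ1). Compounds at 30 µM. Direction is inferred from only a few compounds that gave an IC50; most scored high, so higher reads as stronger inhibition. Most strong results did not repeat in a second test. About 67,000 compounds were tested under these conditions; 0.06% (about 40) showed 50% or more at least once.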
C: 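ClpP1P2, Mycobacterium tuberculosis (UniProt P9WPC5 and UniProt P9WPC3). Protease assay of ClpP1P2, read by the AMC dye that it sets free. Compounds at 50 µM. Direction is inferred from only a few compounds that gave an IC50; most scored high, so higher reads as stronger inhibition. Most other retested compounds had strongly negative values. Of about 69,000 compounds tested this way, about 10 (0.015%) reached 50% or more in at least one test.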

Chains of the proteins cited; added tags and fusions are not shown.
UniProt P9WFT3, whole entry: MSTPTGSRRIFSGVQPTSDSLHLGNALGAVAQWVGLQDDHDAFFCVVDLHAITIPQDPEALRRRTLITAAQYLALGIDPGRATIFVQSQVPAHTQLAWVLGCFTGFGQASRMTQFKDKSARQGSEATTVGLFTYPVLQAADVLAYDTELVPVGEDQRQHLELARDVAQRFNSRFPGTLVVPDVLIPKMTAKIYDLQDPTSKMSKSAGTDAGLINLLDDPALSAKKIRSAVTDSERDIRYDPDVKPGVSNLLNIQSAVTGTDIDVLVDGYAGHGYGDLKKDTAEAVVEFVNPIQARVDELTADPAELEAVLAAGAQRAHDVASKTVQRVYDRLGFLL
UniProt P9WNZ1, whole entry: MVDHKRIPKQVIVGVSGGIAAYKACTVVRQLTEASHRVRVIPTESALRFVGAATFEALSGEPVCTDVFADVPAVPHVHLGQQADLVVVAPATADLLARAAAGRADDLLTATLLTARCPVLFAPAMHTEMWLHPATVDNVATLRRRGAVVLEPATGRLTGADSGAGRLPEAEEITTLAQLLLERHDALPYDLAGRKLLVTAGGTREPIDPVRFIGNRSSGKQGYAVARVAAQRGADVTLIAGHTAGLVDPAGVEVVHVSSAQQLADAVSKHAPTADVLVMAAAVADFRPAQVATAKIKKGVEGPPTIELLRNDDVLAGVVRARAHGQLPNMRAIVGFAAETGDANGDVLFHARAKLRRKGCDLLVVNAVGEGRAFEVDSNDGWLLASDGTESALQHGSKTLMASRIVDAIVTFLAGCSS
UniProt P9WPC5, whole entry: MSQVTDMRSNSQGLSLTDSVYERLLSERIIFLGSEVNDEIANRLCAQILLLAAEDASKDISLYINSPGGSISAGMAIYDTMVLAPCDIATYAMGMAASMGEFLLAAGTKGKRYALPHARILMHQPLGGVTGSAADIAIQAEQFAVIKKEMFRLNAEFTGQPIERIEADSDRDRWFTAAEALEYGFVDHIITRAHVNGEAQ
UniProt P9WPC3, whole entry partner: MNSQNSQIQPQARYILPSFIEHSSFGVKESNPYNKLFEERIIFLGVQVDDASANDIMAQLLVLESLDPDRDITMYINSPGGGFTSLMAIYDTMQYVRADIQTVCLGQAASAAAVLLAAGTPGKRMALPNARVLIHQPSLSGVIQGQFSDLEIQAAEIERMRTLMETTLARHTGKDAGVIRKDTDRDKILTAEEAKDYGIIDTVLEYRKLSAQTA

Each number is a percent effect as filed.
The record does not define 0% and 100%; most values in the screen are far below 50% and negative numbers occur (in some assays of this library far below -100).
The compounds are a random part of those screened.
A dash means the value is not listed here; it may have been measured.

| Compound | A | B | C |
|---|---|---|---|
| `Cc1ccc([C@H]2CN(C(C)C)C[C@@H]2NS(=O)(=O)N2CCOCC2)o1` | 1.783% | 4.497% | 4.432% |
| `CCOc1cc(CN[C@@H]2COC[C@H]2Cc2cc(C)no2)ccc1O` | - | 3.098% | -4.133% |
| `Cc1nc(C2CCCNC2)cc(N2CCc3nc(N)sc3C2)n1` (centres unmarked) | 1.235% | 6.083% | -0.3044% |
| `Cc1nc(C)c(C)c(N2CCC3(CCN(C)C3)C2)n1` (centres unmarked) | -1.868% | -0.2439% | -0.3964% |
| `Cc1cc(CN2CCC(C3CCN(CCc4ccccc4)CC3)C2)[nH]n1` (centres unmarked) | -2.549% | 12.64% | -8.506% |
| `CC(C)Cn1c(=O)nc2n1C(=O)N(c1ccc(F)cc1)C2` | 1.751% | 0% | -10.21% |
| `Cc1cc(C)n(C2CCCN(C(=O)CCCc3ccccn3)C2)n1` (centres unmarked) | -4.023% | -0.8696% | -3.889% |
| `CSCC(C)(O)CNc1ncccc1I` (centres unmarked) | 8.322% | -16.74% | -8.468% |
| `CCC1c2ccccc2CCN1CCNS(C)(=O)=O` (centres unmarked) | -1.534% | 1.656% | -7.973% |
| `CC(C)CN1CCc2[nH]cnc2C12CCN(C(=O)c1ccc[nH]1)CC2` | 1.065% | 0.861% | -17.38% |
| `CC(=O)NCCCNC(=O)Nc1ccccc1-n1nc(C)cc1C` | -2.225% | -7.283% | 6.176% |
| `Cc1cc(-c2cnc(NC3CCCC3)nc2-c2ccoc2C)on1` | -1.087% | 3.889% | 2.903% |
| `Cn1ncc2c1CCCC2NCc1cccc(OC2CCCC2)c1` (centres unmarked) | 0.9887% | 8.033% | -13.76% |
| `COCCNC(=O)c1cnc(N(C)C)nc1C` | -2.022% | 1.332% | -15.27% |
| `O=C(Cc1ccsc1)N1C[C@@H]2OCCN(c3cnccn3)[C@@H]2C1` | 2.928% | -5.123% | -11.78% |
| `COCC(=O)N1CCCC1(C(=O)N(C)C)c1cnccn1` (centres unmarked) | 2.676% | -0.9685% | -10.45% |
| `COCCNc1nc(N2CCCC2)nc2nccnc12` | 2.43% | -0.2301% | 7.778% |
| `COc1ccc(C2CCCN2c2cnc3ccccc3n2)c(OC)c1` (centres unmarked) | 2.397% | 6.971% | -16.91% |
| `Cc1nnc(NCc2ccccc2Cl)c(C#N)c1C` | -3.207% | 1.012% | 12.35% |
| `O[C@@H]1C[C@@H](c2nc(-c3ccccc3)no2)N(CC2CCCCC2)C1` | 0.5271% | -2.483% | -0.5834% |
| `COC(=O)c1ccc(N2CCN(C(=O)c3cnc(C)cn3)C(C)C2)cc1` (centres unmarked) | -8.323% | 7.653% | -15.34% |
| `O=C(NCC1CC1)C1CCC2(CCN(C(=O)c3ccco3)CC2)O1` (centres unmarked) | -3.814% | 6.588% | 3.521% |
| `CN1CCN(c2ccccc2CNC(=O)Cc2ccccc2F)CC1` | -1.444% | -16.6% | 2.982% |
| `O=C(c1cnc2n1CCN(Cc1ccccc1)C2)N1CCCC1` | -0.9382% | 5.75% | -3.057% |
| `FC(F)(F)CCc1ccnc(N2CCN(Cc3ccccn3)CC2)n1` | 6.341% | 5.645% | -3.352% |
| `CC(C)C(C(=O)NC1CC1)n1cnc2cc(F)c(F)cc21` (centres unmarked) | -1.433% | 5.976% | 2.378% |
| `c1ccc2c(N3CCCCC3)cnnc2c1` | -3.072% | 4.888% | 19.75% |
| `O=C(c1cc2cc(F)ccc2[nH]1)N1CCC(Nc2cccnn2)CC1` | -3.888% | 3.426% | 2.744% |
| `Cc1ccc(N2C[C@H](C(=O)N3CCOCC3)[C@@H]3CCO[C@@H]3C2)nn1` | -1.893% | 4.822% | -3.019% |
| `Cc1cc(C(=O)NC2CCN(C(=O)Nc3cccnc3)CC2)c(C)o1` | -0.3632% | -1.21% | -2.12% |
| `Cc1ccc(N(CC(=O)N2CCCCC2)C(=O)C2CCCO2)cc1` (centres unmarked) | -5.776% | -2.664% | 1.379% |
| `COc1cc(Nc2c(C#N)c(=O)n(C)c(=O)n2C)cc(OC)c1` | 3.606% | 0.8584% | -0.889% |
| `CN1CCN(CCCNS(=O)(=O)Cc2ccccc2F)CC1` | -3.835% | -14.72% | -6.363% |
| `NCCn1nc(C2CCN(C(=O)Cc3ccccc3)C2)c2nccnc21` (centres unmarked) | - | 3.841% | -4.969% |
| `CNC(=O)[C@@H](CC(C)C)N1CCC[C@H]1C(=O)N(C)Cc1cccnc1` | -4.142% | 6.998% | -8.447% |
| `COCC(=O)NCC1CCCN(Cc2cc3ccccc3[nH]2)C1` (centres unmarked) | -0.5882% | 2.799% | -19.57% |
| `CCOC1COC2(CCN(Cc3cccc(C#N)c3)CC2)C1` (centres unmarked) | -8.285% | 6.049% | -3.943% |
| `CS(=O)(=O)CCNC(=O)NCCc1cc2ccccc2o1` | 0.867% | -12.17% | 2.327% |
| `Cn1cc(-c2nnn3c2COC(CNC(=O)c2cccs2)C3)cn1` (centres unmarked) | 2.261% | 6.582% | 0.1121% |
| `Cn1ccc(C(=O)NCc2ccc(N3CCOCC3)nc2)cc1=O` | -3.635% | 5.744% | -17.12% |
| `CN(C)Cc1ccnc(C2CCCN2Cc2ccc3ncccc3c2)n1` (centres unmarked) | - | 5.085% | 6.959% |
| `CN(CCC(=O)N1CCc2sccc2C1)Cc1cc(Br)cs1` | 6.879% | 4.545% | -44.82% |
| `N#Cc1c(N2CCCCC2)nsc1-c1cccnc1` | -2.037% | -25.23% | -15.55% |
| `CCn1cc(NC(=O)C(C)n2ncc(Cl)c2C)c(C(=O)NCC(C)C)n1` (centres unmarked) | -2.037% | 4.439% | -2.937% |
| `CCN1CCC(CC(=O)NCC(O)c2cccc(OC)c2)CC1` (centres unmarked) | -0.5623% | 14.97% | -3.325% |
| `O=C(CCn1c(C(F)(F)F)cc2cccnc21)NC1CCCC1` | -5.49% | 1.36% | -9.316% |
| `Cc1cnn(CC(C)NCc2cccc(C#N)c2)c1` (centres unmarked) | -0.1805% | -14.96% | -3.697% |
| `Cn1cc(CNCCc2nccs2)c(-c2cccnc2)n1` | -8.883% | 3.187% | -4.416% |
| `COCCN1CCC2(CC1)CC(CC(N)=O)c1ccc(F)cc12` (centres unmarked) | -2.928% | -1.434% | -4.797% |
| `CCN(C(=O)CN1CCn2c(nnc2C2CC2)C1)C1=CCCCC1` | -2.157% | 3.308% | -1.438% |
| `c1nnc(Nc2cncc(C3CCCN3)n2)s1` (centres unmarked) | -4.147% | -10.78% | 7.875% |
| `CSc1cc2c(cc1NC(=O)NCC(=O)N(C)C)OCCO2` | -5.651% | 0.2016% | 2.394% |
| `O=C(c1ccn(-c2cccc(Cl)c2)n1)N1CCN(C2CC2)CC1` | -15.91% | -1.687% | -4.133% |
| `Cc1cnccc1NCCn1ccnc1C1CCOC1` (centres unmarked) | 1.001% | -24.9% | -3.659% |
| `CC1CCc2nc(O)c(C(=O)NCc3ccccn3)cc2C1` (centres unmarked) | -3.311% | 2.784% | -1.334% |
| `O=C1CCC2(CCNCC2)CN1CCCNc1cccnc1` | 3.726% | -28.61% | -9.401% |
| `Cc1ccc(CN2CCN(Cc3ccc4nonc4c3)CC2=O)cc1` | -1.232% | 1.327% | -15.68% |
| `CCc1noc(C2CCCCN2C(=O)c2cc(C)n(C)n2)n1` (centres unmarked) | 3.368% | 10.62% | 1.153% |
| `COc1cccc(CN2CCN(C(=O)CN3CCOCC3)CC2)n1` | 2.047% | -0.8347% | -2.048% |
| `Cc1cc(CN2CCc3nc(N4CCOCC4)nc(O)c3CC2)c(C)s1` | -2.921% | -4.276% | -12.1% |
| `CC(Cc1cccnc1)Nc1ncnc2cccc(F)c12` (centres unmarked) | -4.408% | 2.056% | -9.182% |
| `CN1CCN(Cn2nc(-c3cccs3)ccc2=O)CC1` | -5.112% | 2.273% | -4.947% |
| `COc1cccc(-c2cc(C(=O)NCCn3nc(C)nc3C)[nH]n2)c1` | 4.666% | 3.995% | -9.171% |
| `COCCN1C[C@@H]2CN(C(=O)CC3CC3)C[C@@H]2C1=O` | -3.961% | -4.58% | -0.3562% |
| `CN(C)c1nc2c(c(N3CCC4(CCCNC4=O)C3)n1)CCCC2` (centres unmarked) | 2.385% | -8.068% | -8.78% |
| `CCN1CCN(C(=O)NC(C)c2noc(-c3ccccc3)n2)CC1` (centres unmarked) | -6.757% | -2.419% | 2.918% |
| `OC[C@@H]1[C@@H](c2ccccc2)CN2CCN(c3ccccn3)C[C@H]12` | - | 1.595% | -13.07% |
| `CCc1cc(CN(C)Cc2nc(-c3ccc(OC)cc3F)oc2C)on1` | -5.74% | 3.085% | -7.636% |
| `CN(CCn1ccc2ccccc21)C(=O)Cc1n[nH]c(=O)[nH]1` | -2.086% | 4.645% | -9.215% |

From ChEMBL document CHEMBL3988442, “University of Dundee, Small-Polar-MMV Screening Library” (2021).